Laboratory results published in the supplement of paper PMC12067093, “Discovery and optimisation of a covalent ligand for TRIM25 and its application to targeted protein ubiquitination” (Chemical Science, 2025).
This is one part of the list.

Chains of the proteins cited; added tags and fusions are not shown. Lines headed by an entry give the natural chain unless they say otherwise; changes in a name come on top.
UniProt P35125: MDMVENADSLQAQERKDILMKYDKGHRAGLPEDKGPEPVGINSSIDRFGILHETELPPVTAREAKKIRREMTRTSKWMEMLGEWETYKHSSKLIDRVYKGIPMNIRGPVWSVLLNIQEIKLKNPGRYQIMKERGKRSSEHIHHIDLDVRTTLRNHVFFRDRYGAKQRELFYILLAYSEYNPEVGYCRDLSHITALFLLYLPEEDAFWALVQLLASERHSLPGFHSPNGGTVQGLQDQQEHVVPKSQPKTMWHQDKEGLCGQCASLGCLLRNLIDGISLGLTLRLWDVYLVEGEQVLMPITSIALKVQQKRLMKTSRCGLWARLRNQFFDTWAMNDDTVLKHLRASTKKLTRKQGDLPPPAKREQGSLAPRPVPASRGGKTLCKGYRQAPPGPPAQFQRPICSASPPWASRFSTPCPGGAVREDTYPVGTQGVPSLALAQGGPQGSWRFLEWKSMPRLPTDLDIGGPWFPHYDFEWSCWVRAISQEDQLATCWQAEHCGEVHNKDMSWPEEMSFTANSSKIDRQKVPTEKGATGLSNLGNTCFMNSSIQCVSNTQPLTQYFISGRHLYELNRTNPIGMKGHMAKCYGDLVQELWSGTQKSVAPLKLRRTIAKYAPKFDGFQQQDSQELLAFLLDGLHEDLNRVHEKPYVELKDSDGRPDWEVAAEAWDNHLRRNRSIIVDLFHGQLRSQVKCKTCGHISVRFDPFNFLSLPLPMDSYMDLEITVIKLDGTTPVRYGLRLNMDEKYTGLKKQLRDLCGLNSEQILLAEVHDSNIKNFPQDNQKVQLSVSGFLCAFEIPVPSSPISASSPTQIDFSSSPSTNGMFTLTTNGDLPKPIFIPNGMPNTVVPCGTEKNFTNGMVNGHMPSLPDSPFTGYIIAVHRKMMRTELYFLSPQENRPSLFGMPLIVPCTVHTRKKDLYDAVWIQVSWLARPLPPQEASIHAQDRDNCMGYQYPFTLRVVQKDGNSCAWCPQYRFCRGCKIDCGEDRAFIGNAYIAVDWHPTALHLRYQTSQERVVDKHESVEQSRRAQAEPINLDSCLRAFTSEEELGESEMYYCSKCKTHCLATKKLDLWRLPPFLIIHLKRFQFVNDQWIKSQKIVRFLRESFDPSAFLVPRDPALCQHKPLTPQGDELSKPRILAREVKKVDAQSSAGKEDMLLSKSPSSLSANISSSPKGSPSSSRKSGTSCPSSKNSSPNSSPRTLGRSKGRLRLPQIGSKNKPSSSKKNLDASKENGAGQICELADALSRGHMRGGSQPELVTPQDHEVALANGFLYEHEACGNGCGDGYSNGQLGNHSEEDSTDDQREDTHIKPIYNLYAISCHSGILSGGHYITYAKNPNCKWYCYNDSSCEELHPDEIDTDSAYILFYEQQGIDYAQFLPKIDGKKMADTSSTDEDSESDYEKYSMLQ
UniProt Q8TCY9: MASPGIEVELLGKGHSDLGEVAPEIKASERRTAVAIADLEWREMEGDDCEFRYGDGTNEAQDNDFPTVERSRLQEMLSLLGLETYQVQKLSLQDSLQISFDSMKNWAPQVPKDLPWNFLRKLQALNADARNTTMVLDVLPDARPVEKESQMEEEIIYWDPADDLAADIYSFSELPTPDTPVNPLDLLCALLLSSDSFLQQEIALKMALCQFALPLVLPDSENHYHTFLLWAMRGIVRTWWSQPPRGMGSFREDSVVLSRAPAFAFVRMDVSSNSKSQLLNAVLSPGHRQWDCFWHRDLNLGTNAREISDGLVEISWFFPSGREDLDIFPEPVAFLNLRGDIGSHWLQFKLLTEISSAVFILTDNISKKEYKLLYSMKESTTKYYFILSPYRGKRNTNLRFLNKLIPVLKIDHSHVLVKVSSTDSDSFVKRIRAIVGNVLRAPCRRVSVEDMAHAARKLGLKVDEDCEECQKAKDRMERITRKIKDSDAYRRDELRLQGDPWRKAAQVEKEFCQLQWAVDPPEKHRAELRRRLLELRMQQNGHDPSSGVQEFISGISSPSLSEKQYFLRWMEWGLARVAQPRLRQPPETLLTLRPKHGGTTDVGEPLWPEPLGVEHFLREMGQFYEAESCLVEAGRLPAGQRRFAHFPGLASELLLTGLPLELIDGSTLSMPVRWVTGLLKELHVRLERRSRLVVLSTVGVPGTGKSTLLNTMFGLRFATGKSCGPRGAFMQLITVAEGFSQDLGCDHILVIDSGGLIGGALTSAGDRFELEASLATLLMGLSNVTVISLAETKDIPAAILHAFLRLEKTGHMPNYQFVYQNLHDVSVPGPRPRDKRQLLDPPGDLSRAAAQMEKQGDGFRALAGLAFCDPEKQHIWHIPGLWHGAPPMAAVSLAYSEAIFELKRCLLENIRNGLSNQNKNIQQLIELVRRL
UniProt Q96T88: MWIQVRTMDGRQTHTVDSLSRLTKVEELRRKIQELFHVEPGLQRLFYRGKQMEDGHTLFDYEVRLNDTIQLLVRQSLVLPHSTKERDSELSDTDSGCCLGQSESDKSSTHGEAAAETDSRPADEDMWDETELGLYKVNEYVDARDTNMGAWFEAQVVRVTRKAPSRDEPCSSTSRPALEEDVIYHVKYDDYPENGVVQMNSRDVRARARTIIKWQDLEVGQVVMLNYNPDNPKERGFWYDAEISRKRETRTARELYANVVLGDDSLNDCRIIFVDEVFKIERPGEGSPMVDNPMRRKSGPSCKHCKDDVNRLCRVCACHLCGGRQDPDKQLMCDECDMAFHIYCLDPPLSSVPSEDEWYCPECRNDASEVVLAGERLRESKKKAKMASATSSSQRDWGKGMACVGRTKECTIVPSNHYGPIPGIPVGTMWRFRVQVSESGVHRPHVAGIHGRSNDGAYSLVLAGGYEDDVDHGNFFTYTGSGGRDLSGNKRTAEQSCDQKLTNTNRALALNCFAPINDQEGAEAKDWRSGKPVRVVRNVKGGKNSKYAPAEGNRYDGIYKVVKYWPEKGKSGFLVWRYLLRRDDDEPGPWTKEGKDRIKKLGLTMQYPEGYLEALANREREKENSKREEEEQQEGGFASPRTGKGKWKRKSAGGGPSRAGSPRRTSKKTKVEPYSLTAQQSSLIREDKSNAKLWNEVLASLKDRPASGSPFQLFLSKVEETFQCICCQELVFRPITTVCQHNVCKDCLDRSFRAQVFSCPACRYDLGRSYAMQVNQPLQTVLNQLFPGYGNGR
UniProt Q9HAU5: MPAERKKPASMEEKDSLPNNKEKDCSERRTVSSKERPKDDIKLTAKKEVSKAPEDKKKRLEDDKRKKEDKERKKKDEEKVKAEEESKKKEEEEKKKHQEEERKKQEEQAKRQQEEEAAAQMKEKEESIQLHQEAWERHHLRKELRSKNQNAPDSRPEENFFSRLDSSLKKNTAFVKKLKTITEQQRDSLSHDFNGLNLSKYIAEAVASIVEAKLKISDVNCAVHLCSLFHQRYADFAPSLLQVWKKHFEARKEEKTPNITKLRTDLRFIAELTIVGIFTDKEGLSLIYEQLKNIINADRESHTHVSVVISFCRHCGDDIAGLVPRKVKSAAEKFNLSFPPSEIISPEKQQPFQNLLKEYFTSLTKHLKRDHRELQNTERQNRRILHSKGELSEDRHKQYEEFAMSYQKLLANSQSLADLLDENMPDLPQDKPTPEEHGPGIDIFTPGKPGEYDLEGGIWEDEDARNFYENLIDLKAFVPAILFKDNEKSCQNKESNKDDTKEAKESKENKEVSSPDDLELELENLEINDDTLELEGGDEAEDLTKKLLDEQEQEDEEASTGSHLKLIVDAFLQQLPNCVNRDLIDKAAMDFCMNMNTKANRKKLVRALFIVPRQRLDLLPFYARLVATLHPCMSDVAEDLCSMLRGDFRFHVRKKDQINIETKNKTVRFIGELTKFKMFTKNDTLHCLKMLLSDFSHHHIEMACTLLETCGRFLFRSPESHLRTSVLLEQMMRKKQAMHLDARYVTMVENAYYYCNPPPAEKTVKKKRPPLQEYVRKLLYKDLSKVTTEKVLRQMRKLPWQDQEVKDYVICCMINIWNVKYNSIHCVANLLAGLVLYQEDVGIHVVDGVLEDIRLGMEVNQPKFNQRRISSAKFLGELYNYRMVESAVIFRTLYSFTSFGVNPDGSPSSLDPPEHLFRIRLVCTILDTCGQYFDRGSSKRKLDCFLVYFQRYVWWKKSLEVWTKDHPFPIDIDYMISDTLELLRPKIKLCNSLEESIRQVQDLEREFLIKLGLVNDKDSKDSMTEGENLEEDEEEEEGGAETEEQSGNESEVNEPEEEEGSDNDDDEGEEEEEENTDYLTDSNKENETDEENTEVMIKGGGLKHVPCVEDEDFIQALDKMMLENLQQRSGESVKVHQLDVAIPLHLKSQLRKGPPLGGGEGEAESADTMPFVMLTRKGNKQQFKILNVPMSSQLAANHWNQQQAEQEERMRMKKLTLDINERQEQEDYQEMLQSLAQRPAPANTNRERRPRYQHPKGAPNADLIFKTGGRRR
UniProt Q13107: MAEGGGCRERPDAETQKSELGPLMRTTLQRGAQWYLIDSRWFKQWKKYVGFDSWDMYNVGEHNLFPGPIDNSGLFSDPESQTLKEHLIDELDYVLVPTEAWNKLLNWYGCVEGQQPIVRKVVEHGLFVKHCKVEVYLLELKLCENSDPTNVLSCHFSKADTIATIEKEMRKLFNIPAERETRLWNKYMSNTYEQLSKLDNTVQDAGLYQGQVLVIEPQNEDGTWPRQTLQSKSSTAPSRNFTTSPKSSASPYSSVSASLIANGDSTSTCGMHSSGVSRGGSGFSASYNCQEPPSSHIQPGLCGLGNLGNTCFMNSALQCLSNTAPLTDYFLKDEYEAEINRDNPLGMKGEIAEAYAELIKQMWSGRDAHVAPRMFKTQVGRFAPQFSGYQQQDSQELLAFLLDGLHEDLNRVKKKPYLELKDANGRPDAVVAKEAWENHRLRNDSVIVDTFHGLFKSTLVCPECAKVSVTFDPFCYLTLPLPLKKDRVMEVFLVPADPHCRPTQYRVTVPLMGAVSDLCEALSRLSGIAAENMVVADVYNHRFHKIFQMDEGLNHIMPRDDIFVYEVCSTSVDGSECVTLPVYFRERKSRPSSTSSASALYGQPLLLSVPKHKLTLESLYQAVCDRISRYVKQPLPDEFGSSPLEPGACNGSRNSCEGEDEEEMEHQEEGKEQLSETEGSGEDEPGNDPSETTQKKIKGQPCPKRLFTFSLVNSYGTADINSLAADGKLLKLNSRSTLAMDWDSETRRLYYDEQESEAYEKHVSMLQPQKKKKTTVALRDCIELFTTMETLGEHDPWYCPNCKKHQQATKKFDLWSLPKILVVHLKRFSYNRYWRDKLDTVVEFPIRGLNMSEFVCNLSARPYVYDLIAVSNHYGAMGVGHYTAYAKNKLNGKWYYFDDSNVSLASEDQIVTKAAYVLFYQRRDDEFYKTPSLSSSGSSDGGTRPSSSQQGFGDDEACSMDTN
UniProt O60763: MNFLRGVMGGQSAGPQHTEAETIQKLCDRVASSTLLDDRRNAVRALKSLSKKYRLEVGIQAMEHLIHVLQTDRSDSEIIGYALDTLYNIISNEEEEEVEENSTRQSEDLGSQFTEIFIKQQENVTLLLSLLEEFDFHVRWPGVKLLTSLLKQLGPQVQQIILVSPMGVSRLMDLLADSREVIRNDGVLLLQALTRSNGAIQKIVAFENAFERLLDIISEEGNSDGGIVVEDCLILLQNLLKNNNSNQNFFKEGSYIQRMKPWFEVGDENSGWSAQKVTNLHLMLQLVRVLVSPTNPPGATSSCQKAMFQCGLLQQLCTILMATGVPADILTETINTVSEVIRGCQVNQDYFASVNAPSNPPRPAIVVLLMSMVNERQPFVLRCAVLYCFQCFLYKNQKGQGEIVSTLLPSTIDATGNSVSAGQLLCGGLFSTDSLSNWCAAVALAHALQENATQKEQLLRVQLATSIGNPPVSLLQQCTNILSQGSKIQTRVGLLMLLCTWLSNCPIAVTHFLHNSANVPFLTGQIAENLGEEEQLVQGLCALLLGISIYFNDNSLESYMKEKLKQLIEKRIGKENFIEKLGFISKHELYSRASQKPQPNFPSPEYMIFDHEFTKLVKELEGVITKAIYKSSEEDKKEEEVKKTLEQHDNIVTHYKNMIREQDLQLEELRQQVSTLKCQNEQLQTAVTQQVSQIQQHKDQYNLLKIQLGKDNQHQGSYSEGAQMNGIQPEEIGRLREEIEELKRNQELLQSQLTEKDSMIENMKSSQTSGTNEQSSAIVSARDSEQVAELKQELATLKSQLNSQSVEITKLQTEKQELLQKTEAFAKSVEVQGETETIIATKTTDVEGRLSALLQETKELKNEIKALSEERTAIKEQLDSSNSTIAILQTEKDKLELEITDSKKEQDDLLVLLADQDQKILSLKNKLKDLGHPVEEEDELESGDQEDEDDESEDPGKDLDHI
UniProt A6NIH7: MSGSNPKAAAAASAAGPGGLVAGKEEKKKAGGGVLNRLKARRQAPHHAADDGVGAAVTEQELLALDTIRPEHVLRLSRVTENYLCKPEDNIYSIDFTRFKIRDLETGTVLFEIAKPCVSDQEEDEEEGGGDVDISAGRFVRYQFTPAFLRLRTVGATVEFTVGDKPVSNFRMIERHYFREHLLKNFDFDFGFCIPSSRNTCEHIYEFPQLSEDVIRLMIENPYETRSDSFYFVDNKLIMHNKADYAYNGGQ

Compound: CC1Cc2ccccc2N1C(=O)C1CCCN(C1)C(=O)CCl (mixture of isomers) [TRIM25 ligand 11 (diastereomer mixture)]
Assay: probe-labelled cysteine peptide fold change vs DMSO (competition) (log2 fold change); higher = less target engagement (more negative = stronger competition)
Conditions: THP-1, incubation time: 4 h
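Also: competitive chemoproteomic profiling in live THP-1 cells with an iodoacetamide desthiobiotin (IA-DTB) probe, comparing probe-labelled peptide intensities in compound-treated cells against DMSO-treated controls.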

Target | probe-labelled cysteine peptide fold change (10 µM) | probe-labelled cysteine peptide fold change (50 µM)
USP6_P35125_584_CYGDLVQELWSGTQK (UniProt P35125) | 0.0718 | 0.0421
URGCP_Q8TCY9_292_QWDCFWHR (UniProt Q8TCY9) | 0.118 | 0.15
UHRF1BP1_Q6BDS2_384_HCEAMETR (UniProt Q6BDS2) | -0.0654 | -0.0129
USP42_Q9H9J4_867_SEEPCEQPLLVHPSGDHAR (UniProt Q9H9J4) | 0.0739 | -0.132
UHRF1_Q96T88_727+739_VEETFQCICCQELVFRPITTVCQHNVCK (UniProt Q96T88) | 0.136 | -0.00123
UPF2_Q9HAU5_687_NDTLHCLK (UniProt Q9HAU5) | 0.00638 | 0.0602
USP47_Q96K76_314_CLECGYEGWR (UniProt Q96K76) | 0.102 | 0.285
USP4_Q13107_519_VTVPLMGAVSDLCEALSR (UniProt Q13107) | -0.116 | -0.0154
USP10_Q14694_94_TPSYSISSTLNPQAPEFILGCTASK (UniProt Q14694) | -0.275 | -0.0814
USP6_P35125_1036_AQAEPINLDSCLR (UniProt P35125) | -0.111 | -0.0406
USO1_O60763_383_CAVLYCFQCFLYK (UniProt O60763) | 0.0534 | 0.0182
UBXN4_Q92575_186_SDTATGGESAGHATSSQEPSGCSDQRPAEDLNIR (UniProt Q92575) | 0.255 | -0.267
UGP2_Q16851_123_LNGGLGTSMGCK (UniProt Q16851) | -0.0886 | -0.138
UBR5_O95071_883_CDYEACR (UniProt O95071) | 0.0209 | 0.0883
UNC119B_A6NIH7_85_VTENYLCKPEDNIYSIDFTR (UniProt A6NIH7) | -0.0289 | -0.158
UHRF1_Q96T88_98_ERDSELSDTDSGCCLGQSESDK (UniProt Q96T88) | -0.062 | -0.0154

Whole records, quoted from the list. Order of values: probe-labelled cysteine peptide fold change (10 µM)	probe-labelled cysteine peptide fold change (50 µM)
UNC119B_A6NIH7_85_VTENYLCKPEDNIYSIDFTR (UniProt A6NIH7) reads -0.0289	-0.158
USP6_P35125_1036_AQAEPINLDSCLR (UniProt P35125) reads -0.111	-0.0406
